# Measurements from PubChem BioAssay AID602190 (Broad Institute, 2012).
# Inconclusive means that the source gave no clear call. Such entries were picked first, then a sample of the others. Active and inactive are the calls of the source.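 How the source made its calls: active means compound whose fitted half-maximal concentration, in every repeat run, is at most twice the top dose tested; inconclusive means repeat runs disagree, or a flat or poor curve fit; inactive means every repeat run called inactive.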
# Assay: single-agent growth inhibition of C. albicans CaCi-2, dose response, CaCi-2 strain, plate reader, dry powder (AID 602190)
# Details: C. albicans CaCi-2 growth, Alamar Blue fluorescence, 48 h; at 26 µM (top of the series)
# How it was run: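 Material – Candida albicans strain CaCi-2, a fluconazole-resistant clinical isolate · Quantity – inoculum OD600 0.00015 · Dosing – test compounds in a dose-response series · Incubation – 48 h static exposure at 37 °C, 2 h Alamar Blue · Technique – Alamar Blue fluorescence · Measure – growth inhibition from lowered fluorescence · Control set – amphotericin 10 µM positive control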
row,Compound,"activity change, negative = inhibition"
1,Cc1ccc(C(=O)Nc2nc(-c3ccccn3)cs2)cc1,inconclusive: -99%
2,COc1ccc(-c2nnc(NC(=O)c3ccc(S(=O)(=O)N4CCCc5ccccc54)cc3)o2)cc1,inconclusive: -5.16%
3,Cc1ccc(-c2nc3c(Cl)cc(Cl)cc3c(=O)n2O)cc1,inactive: -45%
4,CCCC(=O)NC(c1cccs1)c1cc(Cl)c2cccnc2c1O (centres undefined),inconclusive: -77.9%
